PubChem BioAssay AID1259308, NCATS, 2017

Assay: 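Candidate targets for better recombinant protein yield in mammalian cells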 (primary screen)
Cells: human HEK293 embryonic kidney cells stably expressing firefly luciferase (HEK-CMV-Luc2-Hygro)
Knock-down reagent: single siRNA against human genes, 0.8 pmol siRNA per well
Duration: 72 h
Detection: 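Reporter luminescence and viable-cell signal on separate replicate plates, given as percent of non-targeting control and median/MAD z-scores, plus per-cell luciferase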
Reading the numbers: total luciferase, z-score and total luciferase, % of control: higher = more reporter protein produced
Rule for the call: 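Active when the median/MAD z-score for overall luciferase is greater than 3; a gene was taken forward for validation with new siRNAs if at least two of its three siRNAs passed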
Calls: active = raised luciferase; inactive = no rise
Shown is an unselected part of about 59,000 deposited reagents. Over the whole deposit, about 1,510 (2.6%) got an active call. 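Calls use total luciferase alone and ignore viability, so some active siRNAs may act by altering cell number.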 Entries without a mark were called inactive. The numbers tell different reagents against one gene apart. Not all columns of the deposit are shown. No sequences are given here.

| gene | reagent | total luciferase, z-score | total luciferase, % of control |
| --- | --- | --- | --- |
| DNTTIP1 (deoxynucleotidyltransferase terminal interacting protein 1) | 1 | 1.99 | 121 |
| DNTTIP1 (deoxynucleotidyltransferase terminal interacting protein 1) | 2 | 2.06 | 123 |
| DNTTIP1 (deoxynucleotidyltransferase terminal interacting protein 1) | 3 | 0.202 | 85.9 |
| OR6C1 (olfactory receptor family 6 subfamily C member 1) | 1 | 0.553 | 92.9 |
| OR6C1 (olfactory receptor family 6 subfamily C member 1) | 2 | -0.541 | 71.1 |
| OR6C1 (olfactory receptor family 6 subfamily C member 1) | 3 | 0.596 | 93.7 |
| NLRP11 (NLR family pyrin domain containing 11) | 1 | 0.562 | 93.1 |
| NLRP11 (NLR family pyrin domain containing 11) | 2 | 0.61 | 94 |
| NLRP11 (NLR family pyrin domain containing 11) | 3 | 1.6 | 114 |
| L3MBTL2 (L3MBTL histone methyl-lysine binding protein 2) | 1 | 1.52 | 112 |
| L3MBTL2 (L3MBTL histone methyl-lysine binding protein 2) | 2 | 1.47 | 111 |
| L3MBTL2 (L3MBTL histone methyl-lysine binding protein 2) | 3 | 1.79 | 118 |
| CCL20 (C-C motif chemokine ligand 20) | 1 | 4.11 (active) | 164 |
| CCL20 (C-C motif chemokine ligand 20) | 2 | 0.152 | 84.9 |
| CCL20 (C-C motif chemokine ligand 20) | 3 | 0.29 | 87.7 |
| SEMA3E (semaphorin 3E) | 1 | -0.893 | 64.1 |
| SEMA3E (semaphorin 3E) | 2 | 0.728 | 96.4 |
| SEMA3E (semaphorin 3E) | 3 | -0.178 | 78.3 |
| C16orf78 (chromosome 16 open reading frame 78) | 1 | -0.694 | 68.1 |
| C16orf78 (chromosome 16 open reading frame 78) | 2 | -0.417 | 73.6 |
| C16orf78 (chromosome 16 open reading frame 78) | 3 | -0.706 | 67.9 |
| ZNF230 (zinc finger protein 230) | 1 | -0.416 | 73.6 |
| ZNF230 (zinc finger protein 230) | 2 | -0.306 | 75.8 |
| ZNF230 (zinc finger protein 230) | 3 | 0.3 | 87.9 |
| SIVA1 (SIVA1 apoptosis inducing factor) | 1 | -0.5 | 71.9 |
| SIVA1 (SIVA1 apoptosis inducing factor) | 2 | -0.653 | 68.9 |
| SIVA1 (SIVA1 apoptosis inducing factor) | 3 | 0.327 | 88.4 |
| ADCK1 (aarF domain containing kinase 1) | 1 | 0.339 | 88.6 |
| ADCK1 (aarF domain containing kinase 1) | 2 | 1.42 | 110 |
| ADCK1 (aarF domain containing kinase 1) | 3 | -0.635 | 69.3 |
| LLPH (LLP homolog, long-term synaptic facilitation factor) | 1 | 0.206 | 86 |
| LLPH (LLP homolog, long-term synaptic facilitation factor) | 2 | -0.216 | 77.6 |
| LLPH (LLP homolog, long-term synaptic facilitation factor) | 3 | -0.906 | 63.9 |
| RNF181 (ring finger protein 181) | 1 | 0.0666 | 83.2 |
| RNF181 (ring finger protein 181) | 2 | 0.538 | 92.6 |
| RNF181 (ring finger protein 181) | 3 | -1.11 | 59.8 |
| PRMT9 (protein arginine methyltransferase 9) | 1 | -0.313 | 75.7 |
| PRMT9 (protein arginine methyltransferase 9) | 2 | -0.62 | 69.6 |
| PRMT9 (protein arginine methyltransferase 9) | 3 | 0.0245 | 82.4 |
| FAM86C2P (family with sequence similarity 86 member C2, pseudogene) | 1 | 1.85 | 119 |
| FAM86C2P (family with sequence similarity 86 member C2, pseudogene) | 2 | 3.41 (active) | 150 |
| FAM86C2P (family with sequence similarity 86 member C2, pseudogene) | 3 | 0.224 | 86.3 |
| AMY1A (amylase alpha 1A) | 1 | 0.315 | 88.1 |
| AMY1A (amylase alpha 1A) | 2 | 0.0361 | 82.6 |
| AMY1A (amylase alpha 1A) | 3 | -0.0496 | 80.9 |
| MCCD1 (mitochondrial coiled-coil domain 1) | 1 | 1.94 | 121 |
| MCCD1 (mitochondrial coiled-coil domain 1) | 2 | 0.608 | 94 |
| MCCD1 (mitochondrial coiled-coil domain 1) | 3 | 1.42 | 110 |
| FOXF2 (forkhead box F2) | 1 | -0.0311 | 81.3 |
| FOXF2 (forkhead box F2) | 2 | -0.489 | 72.2 |
| FOXF2 (forkhead box F2) | 3 | 0.817 | 98.1 |
| ABCG8 (ATP binding cassette subfamily G member 8) | 1 | -1.82 | 45.7 |
| ABCG8 (ATP binding cassette subfamily G member 8) | 2 | 1.42 | 110 |
| ABCG8 (ATP binding cassette subfamily G member 8) | 3 | -1.35 | 55.1 |
| PDZD7 (PDZ domain containing 7) | 1 | -0.281 | 76.3 |
| PDZD7 (PDZ domain containing 7) | 2 | -1.16 | 58.8 |
| PDZD7 (PDZ domain containing 7) | 3 | 1.32 | 108 |
| COG5 (component of oligomeric golgi complex 5) | 1 | -1.59 | 50.2 |
| COG5 (component of oligomeric golgi complex 5) | 2 | -1.12 | 59.6 |
| COG5 (component of oligomeric golgi complex 5) | 3 | -0.636 | 69.2 |
| LINC03033 (long independently transcribed non-coding RNA 3033) | 1 | 0.0282 | 82.4 |
| LINC03033 (long independently transcribed non-coding RNA 3033) | 2 | -1.53 | 51.4 |
| LINC03033 (long independently transcribed non-coding RNA 3033) | 3 | 3 | 141 |
| RPL29P31 (ribosomal protein L29 pseudogene 31) | 1 | 0.878 | 99.3 |
| RPL29P31 (ribosomal protein L29 pseudogene 31) | 2 | -1.11 | 59.8 |
| RPL29P31 (ribosomal protein L29 pseudogene 31) | 3 | 0.0202 | 82.3 |
| LOC105372990 | 1 | -1.01 | 61.8 |
| LOC105372990 | 2 | 0.129 | 84.5 |
| LOC105372990 | 3 | 0.246 | 86.8 |
| VSTM4 (V-set and transmembrane domain containing 4) | 1 | -0.736 | 67.2 |
| VSTM4 (V-set and transmembrane domain containing 4) | 2 | 0.448 | 90.8 |
| VSTM4 (V-set and transmembrane domain containing 4) | 3 | -0.78 | 66.4 |
| BTG2 (BTG anti-proliferation factor 2) | 1 | -0.903 | 63.9 |
| BTG2 (BTG anti-proliferation factor 2) | 2 | 1.57 | 113 |
| BTG2 (BTG anti-proliferation factor 2) | 3 | 0.78 | 97.4 |

Records above with an active call (2):
| gene | reagent | total luciferase, z-score | total luciferase, % of control |
| --- | --- | --- | --- |
| CCL20 (C-C motif chemokine ligand 20) | 1 | 4.11 (active) | 164 |
| FAM86C2P (family with sequence similarity 86 member C2, pseudogene) | 2 | 3.41 (active) | 150 |
